Assay results from the supplement of paper PMC10849652.
The list shows a part of the results.

Sequences of proteins named here, by UniProt entry; tags and fusion partners are left off. A change or cut given only in a name is not applied to a line headed by its entry.
UniProt Q7Z460: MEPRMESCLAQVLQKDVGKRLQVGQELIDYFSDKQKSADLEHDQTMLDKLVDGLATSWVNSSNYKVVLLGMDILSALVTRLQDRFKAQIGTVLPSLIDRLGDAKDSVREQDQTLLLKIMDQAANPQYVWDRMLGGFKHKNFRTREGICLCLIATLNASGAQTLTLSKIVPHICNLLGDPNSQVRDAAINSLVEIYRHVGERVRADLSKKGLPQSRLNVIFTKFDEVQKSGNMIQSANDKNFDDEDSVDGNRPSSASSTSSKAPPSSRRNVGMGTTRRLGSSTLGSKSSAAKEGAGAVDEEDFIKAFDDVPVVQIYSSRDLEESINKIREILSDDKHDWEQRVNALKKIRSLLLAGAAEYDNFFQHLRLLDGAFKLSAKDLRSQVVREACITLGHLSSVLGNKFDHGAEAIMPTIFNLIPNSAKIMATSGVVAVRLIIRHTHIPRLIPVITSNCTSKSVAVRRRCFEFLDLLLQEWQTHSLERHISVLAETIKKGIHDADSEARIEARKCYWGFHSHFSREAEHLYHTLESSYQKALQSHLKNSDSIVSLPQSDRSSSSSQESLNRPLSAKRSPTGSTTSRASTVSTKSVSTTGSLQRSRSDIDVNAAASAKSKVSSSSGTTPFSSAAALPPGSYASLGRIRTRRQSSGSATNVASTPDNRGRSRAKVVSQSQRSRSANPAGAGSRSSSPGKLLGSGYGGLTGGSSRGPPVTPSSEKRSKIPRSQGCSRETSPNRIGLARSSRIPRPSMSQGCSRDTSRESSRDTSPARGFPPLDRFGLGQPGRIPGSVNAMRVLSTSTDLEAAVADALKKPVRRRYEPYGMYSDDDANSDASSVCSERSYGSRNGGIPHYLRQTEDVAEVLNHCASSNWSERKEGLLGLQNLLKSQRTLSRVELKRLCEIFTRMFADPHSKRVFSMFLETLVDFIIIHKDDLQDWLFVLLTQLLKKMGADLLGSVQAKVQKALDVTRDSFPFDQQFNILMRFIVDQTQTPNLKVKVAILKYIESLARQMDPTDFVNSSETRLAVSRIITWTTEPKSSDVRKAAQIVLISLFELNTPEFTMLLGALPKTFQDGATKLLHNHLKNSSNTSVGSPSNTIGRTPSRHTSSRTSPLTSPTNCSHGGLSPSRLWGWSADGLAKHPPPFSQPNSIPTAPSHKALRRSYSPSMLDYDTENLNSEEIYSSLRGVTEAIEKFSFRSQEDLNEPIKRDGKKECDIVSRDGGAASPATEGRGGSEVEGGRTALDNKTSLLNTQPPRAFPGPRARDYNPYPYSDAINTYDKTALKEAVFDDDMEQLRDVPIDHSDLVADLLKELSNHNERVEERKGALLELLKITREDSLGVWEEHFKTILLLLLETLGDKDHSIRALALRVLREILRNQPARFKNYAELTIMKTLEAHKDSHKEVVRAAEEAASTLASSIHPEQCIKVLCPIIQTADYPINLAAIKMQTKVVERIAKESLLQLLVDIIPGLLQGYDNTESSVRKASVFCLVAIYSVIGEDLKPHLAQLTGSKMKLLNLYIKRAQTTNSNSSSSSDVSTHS
UniProt Q8WUX9: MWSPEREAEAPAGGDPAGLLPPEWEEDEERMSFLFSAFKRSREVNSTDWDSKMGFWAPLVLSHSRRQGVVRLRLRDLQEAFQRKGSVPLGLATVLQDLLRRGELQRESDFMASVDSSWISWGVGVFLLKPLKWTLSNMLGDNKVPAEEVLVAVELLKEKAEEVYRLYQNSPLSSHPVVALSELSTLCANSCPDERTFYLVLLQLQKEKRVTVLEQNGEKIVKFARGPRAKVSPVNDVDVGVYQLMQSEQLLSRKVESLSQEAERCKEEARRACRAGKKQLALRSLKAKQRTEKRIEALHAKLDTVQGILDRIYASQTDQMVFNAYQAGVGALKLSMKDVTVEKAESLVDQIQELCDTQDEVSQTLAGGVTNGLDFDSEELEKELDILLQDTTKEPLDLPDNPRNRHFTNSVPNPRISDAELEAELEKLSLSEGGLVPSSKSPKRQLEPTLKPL
UniProt P54105: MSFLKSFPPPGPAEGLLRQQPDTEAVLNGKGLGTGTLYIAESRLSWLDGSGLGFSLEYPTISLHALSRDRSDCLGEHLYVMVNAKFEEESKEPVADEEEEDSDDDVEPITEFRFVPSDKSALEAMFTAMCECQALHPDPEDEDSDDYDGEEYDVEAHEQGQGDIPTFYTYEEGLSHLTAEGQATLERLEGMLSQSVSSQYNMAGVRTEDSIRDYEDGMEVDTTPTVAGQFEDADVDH
UniProt Q2KHT3: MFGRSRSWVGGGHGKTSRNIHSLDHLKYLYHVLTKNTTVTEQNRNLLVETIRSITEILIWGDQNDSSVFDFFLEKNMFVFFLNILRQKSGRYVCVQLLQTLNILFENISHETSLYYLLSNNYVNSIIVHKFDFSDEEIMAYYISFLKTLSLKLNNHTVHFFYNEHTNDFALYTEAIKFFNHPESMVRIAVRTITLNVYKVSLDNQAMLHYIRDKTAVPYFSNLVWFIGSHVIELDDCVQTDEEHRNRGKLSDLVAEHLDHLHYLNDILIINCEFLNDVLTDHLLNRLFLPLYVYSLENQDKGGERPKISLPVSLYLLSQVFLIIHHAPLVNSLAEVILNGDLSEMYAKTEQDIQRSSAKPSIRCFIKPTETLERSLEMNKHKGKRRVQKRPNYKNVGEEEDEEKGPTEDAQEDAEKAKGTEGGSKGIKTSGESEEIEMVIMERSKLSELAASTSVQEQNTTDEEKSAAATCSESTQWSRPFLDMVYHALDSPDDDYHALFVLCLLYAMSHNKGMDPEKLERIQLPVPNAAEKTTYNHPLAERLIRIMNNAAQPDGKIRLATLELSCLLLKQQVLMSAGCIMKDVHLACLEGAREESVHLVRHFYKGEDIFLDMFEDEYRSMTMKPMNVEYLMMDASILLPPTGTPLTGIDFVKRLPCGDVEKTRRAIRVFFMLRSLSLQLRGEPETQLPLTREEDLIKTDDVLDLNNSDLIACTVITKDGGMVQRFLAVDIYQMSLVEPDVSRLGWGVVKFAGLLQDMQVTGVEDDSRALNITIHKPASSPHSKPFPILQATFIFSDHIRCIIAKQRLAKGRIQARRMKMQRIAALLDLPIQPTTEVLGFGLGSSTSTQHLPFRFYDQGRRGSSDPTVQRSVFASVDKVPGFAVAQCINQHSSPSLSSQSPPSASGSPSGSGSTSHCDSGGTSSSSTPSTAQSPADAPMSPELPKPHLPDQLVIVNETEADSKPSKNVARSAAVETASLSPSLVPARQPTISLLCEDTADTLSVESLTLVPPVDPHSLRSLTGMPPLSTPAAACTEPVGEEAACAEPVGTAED
UniProt Q96NY7: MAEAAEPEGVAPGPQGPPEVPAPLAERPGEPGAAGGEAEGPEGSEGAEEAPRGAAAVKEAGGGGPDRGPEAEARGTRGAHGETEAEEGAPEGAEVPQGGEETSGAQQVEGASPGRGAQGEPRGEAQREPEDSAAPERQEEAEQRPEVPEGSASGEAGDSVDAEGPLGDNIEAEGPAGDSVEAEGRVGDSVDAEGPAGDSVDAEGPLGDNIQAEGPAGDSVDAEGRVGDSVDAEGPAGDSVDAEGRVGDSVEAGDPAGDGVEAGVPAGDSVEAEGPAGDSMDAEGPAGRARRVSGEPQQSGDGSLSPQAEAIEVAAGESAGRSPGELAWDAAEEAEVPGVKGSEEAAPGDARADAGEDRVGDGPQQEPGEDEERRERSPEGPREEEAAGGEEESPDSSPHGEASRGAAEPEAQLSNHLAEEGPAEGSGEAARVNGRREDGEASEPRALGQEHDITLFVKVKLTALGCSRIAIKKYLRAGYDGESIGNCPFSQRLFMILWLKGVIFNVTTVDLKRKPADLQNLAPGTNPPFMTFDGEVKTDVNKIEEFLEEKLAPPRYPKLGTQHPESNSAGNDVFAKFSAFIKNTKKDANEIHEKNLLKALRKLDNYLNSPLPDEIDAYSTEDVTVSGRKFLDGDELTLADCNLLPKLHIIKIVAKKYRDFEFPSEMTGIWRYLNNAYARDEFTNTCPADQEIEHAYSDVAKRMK
UniProt Q8IZR5: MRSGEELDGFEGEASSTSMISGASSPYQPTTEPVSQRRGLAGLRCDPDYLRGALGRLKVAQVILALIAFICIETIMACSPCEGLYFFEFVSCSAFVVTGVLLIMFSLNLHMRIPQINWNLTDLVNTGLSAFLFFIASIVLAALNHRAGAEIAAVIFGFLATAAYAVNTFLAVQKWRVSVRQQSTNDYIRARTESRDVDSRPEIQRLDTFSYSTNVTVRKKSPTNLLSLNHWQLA
UniProt P30622: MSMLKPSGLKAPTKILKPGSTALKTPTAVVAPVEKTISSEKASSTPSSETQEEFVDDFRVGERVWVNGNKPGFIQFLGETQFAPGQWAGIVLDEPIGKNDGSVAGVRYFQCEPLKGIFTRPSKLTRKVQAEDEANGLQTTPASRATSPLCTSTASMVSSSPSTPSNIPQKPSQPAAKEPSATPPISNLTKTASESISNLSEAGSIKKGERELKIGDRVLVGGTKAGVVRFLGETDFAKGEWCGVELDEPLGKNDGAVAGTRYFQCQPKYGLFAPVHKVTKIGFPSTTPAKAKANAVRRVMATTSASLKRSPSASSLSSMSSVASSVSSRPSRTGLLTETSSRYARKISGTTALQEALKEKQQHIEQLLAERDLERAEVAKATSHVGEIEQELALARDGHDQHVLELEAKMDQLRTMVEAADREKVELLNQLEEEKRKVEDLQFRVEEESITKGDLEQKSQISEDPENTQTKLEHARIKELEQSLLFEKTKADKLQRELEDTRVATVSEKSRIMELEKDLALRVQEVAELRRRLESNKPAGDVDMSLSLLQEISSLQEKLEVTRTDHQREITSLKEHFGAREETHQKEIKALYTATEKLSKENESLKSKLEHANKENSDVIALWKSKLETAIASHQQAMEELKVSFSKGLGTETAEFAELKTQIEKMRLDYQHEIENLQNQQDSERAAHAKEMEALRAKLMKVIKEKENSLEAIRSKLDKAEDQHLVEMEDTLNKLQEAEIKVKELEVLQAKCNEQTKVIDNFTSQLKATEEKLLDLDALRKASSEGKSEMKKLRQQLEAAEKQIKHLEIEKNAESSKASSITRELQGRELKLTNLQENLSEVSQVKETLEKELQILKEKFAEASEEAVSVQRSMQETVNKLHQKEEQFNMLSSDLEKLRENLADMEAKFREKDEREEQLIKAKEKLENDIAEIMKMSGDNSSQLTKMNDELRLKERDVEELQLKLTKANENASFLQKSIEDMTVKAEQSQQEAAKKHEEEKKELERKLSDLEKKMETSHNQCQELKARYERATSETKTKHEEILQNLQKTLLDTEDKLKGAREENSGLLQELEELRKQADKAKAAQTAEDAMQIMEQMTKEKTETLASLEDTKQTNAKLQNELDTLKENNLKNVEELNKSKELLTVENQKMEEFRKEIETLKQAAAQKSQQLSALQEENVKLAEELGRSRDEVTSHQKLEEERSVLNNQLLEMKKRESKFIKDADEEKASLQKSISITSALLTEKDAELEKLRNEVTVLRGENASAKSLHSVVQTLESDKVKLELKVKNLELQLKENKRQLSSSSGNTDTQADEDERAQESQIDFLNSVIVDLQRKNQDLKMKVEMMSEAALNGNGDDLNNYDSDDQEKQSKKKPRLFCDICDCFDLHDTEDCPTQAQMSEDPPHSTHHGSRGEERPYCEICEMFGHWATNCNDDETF
UniProt Q9P2E5: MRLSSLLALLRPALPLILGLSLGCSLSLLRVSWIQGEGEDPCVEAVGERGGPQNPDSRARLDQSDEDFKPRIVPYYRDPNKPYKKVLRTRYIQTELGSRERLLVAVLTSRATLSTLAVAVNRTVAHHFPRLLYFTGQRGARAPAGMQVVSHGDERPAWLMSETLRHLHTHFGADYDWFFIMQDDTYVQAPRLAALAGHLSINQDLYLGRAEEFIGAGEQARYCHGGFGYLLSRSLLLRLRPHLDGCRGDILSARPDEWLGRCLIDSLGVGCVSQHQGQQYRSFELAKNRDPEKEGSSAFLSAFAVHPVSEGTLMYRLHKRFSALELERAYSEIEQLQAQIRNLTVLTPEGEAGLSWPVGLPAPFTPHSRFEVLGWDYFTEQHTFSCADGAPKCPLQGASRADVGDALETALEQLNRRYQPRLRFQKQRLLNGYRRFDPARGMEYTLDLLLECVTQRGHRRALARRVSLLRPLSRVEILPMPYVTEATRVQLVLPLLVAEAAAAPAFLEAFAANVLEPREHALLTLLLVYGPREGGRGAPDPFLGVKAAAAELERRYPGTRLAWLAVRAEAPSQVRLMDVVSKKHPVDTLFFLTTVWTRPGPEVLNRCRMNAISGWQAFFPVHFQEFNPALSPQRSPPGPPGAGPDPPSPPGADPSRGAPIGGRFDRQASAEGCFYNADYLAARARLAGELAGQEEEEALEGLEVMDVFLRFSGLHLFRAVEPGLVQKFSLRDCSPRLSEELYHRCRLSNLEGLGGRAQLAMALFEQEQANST
UniProt P0C7P0: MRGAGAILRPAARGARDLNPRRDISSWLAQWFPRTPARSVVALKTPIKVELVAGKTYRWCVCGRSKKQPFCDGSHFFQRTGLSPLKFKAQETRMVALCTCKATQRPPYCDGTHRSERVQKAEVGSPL

Columns and labels:
Experiment in all cases: log2 fold change, soluble protein after heating vs DMSO (PISA); higher = thermal stabilisation; K562 lysate, 10 uM; active = over 0.2 and 3.5 SD of the protein, either way, in both replicates (recomputed)
erlotinib = compound: C#Cc1cccc(Nc2ncnc3cc(OCCOC)c(OCCOC)cc23)c1 [erlotinib]
How it was run: (§1)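 A 30 min treatment with 10 μM compound was applied to crude K562 extract at 1 mg/mL protein in PBS pH 7.4 with 1 mM MgCl2. Heating for 3 min spanned 48°C-58°C, after which aliquots were pooled, adjusted to 0.5% NP-40 at 4°C and spun at 21,000xg for 90 min. TMTpro 16plex LC-MS/MS of the supernatant, with channel sums equalised, gave values recorded as log-two fold change in thermal stability against solvent controls, from duplicates.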

[1] = compound: C/C(=N\NC(=O)C1=CC(=CC=C1)S(=O)(=O)N2CCOCC2)/C3=C(C=CC(=C3)Cl)O
How it was run: as §1

[2] = compound: C1=CC(=CC=C1C2=NC3=C(N2)C=C(C=C3)C(=O)N)OC4=CC=C(C=C4)Cl
How it was run: as §1

[3] = compound: C1=CC2=C(C=CC(=C2)/C=C\3/C(=O)NC(=NCC4=CC=CS4)S3)N=C1
How it was run: as §1

[4] = compound: C1=CC2=NC=CN=C2C=C1/C=C/3\C(=O)NC(=O)S3
How it was run: as §1

[5] = compound: C1=CC=C(C=C1)C2=NC(=C(N2)C3=CC=NC=C3)C4=CC(=C(C=C4)Cl)O
How it was run: as §1

[6] = compound: C1=CC=C2C(=C1)C3=NNC4=CC=CC(=C43)C2=O
How it was run: as §1

[7] = compound: C1CCN(C1)C(=O)NC2=CC=CC(=C2)NC3=NC=C(C(=N3)NCCC4=CN=CN4)Br
How it was run: as §1

[8] = compound: C1CN(CCC1(CC2=CC=C(C=C2)Cl)N)C3=NC=NC4=C3C=CN4
How it was run: as §1

IRAK-1-4 Inhibitor I = compound: C1COCCN1CCN2C3=CC=CC=C3N=C2NC(=O)C4=CC(=CC=C4)[N+](=O)[O-] [IRAK-1-4 Inhibitor I]
How it was run: as §1

[9] = compound: CC(=O)c1cnc2ccc(-c3cc(Cl)c(O)c(Cl)c3)nc2c1N[C@H]1CC[C@H](CN(C)C)CC1
How it was run: as §1

ralimetinib = compound: CC(C)(C)Cn1c(N)nc2ccc(-c3[nH]c(C(C)(C)C)nc3-c3ccc(F)cc3)nc21 [ralimetinib]
How it was run: as §1

[10] = compound: CC(C)(O)CC(=O)NCCn1ccc2ncnc(Nc3ccc(Oc4cccc(C(F)(F)F)c4)c(Cl)c3)c21
How it was run: as §1

[11] = compound: CC(C)C1=C2N=C(C=C(N2N=C1)NCC3=CC=CC=C3)NCCCCCCN
How it was run: as §1

[12] = compound: CC1=C(C(CC(=O)N1)C2=CC=C(C=C2)C(F)(F)F)C(=O)NC3=C(C=C4C(=C3)C=NN4)F
How it was run: as §1

[13] = compound: CC1=C(C2=C(C=C1)C(=O)C3=CC=CC=C3N2CCCN)C
How it was run: as §1

[14] = compound: CC1=C(C=C(C=C1)NC(=O)C2=CC(=CC=C2)C(C)(C)C#N)NC3=CC4=C(C=C3)N=CN(C4=O)C
How it was run: as §1

[15] = compound: CC1=C(C=C(C=C1)NC(=O)C2=CC(=CC=C2)N(C)C)NC(=O)C3=CC=C(C=C3)O
How it was run: as §1

[16] = compound: CC1=CC=C(C=C1)SC2=C3C=C(SC3=CN=C2)C(=O)N
How it was run: as §1

ibrutinib = compound: C=CC(=O)N1CCC[C@@H](n2nc(-c3ccc(Oc4ccccc4)cc3)c3c(N)ncnc32)C1 [ibrutinib]
How it was run: as §1

Measured: log2 fold change

CLIC4 (UniProt Q9Y696)
inactive: erlotinib -0.001 | [1] -0.04 | [2] 0.005 | [3] -0.011 | [4] -0.014 | [5] -0.014 | [6] 0.022 | [7] 0.008 | [8] -0.005 | IRAK-1-4 Inhibitor I 0.015 | [9] -0.005 | ralimetinib 0.012 | [10] -0.006 | [11] 0.011 | [12] -0.007 | [13] 0.011 | [14] 0.036 | [15] -0.037 | [16] 0.001

CLASP1 (UniProt Q7Z460)
inactive: erlotinib 0.042 | [1] 0.082 | [2] -0.029 | [3] -0.022 | [4] 0.01 | [5] 0.026 | [6] -0.041 | [7] -0.035 | [8] 0.02 | IRAK-1-4 Inhibitor I 0.029 | [9] 0.013 | ralimetinib 0.02 | [10] 0.024 | [11] 0.01 | [12] 0.018 | [13] 0.004 | [14] 0.02 | [15] 0.036 | [16] 0.001

CHMP7 (UniProt Q8WUX9)
inactive: erlotinib -0.003 | [1] 0.01 | [2] 0.006 | [3] -0.017 | [4] 0.01 | [5] -0.041 | [6] 0.005 | [7] -0.036 | [8] -0.054 | IRAK-1-4 Inhibitor I -0.014 | ibrutinib 0.117 | [9] -0.038 | ralimetinib 0.025 | [10] 0.013 | [11] 0.039 | [12] -0.021 | [13] -0.006 | [14] -0.035 | [15] 0.017 | [16] 0

2 entries picked at random from those above, as already listed:
CLASP1 (UniProt Q7Z460)
inactive: erlotinib 0.042 | [1] 0.082 | [2] -0.029 | [3] -0.022 | [4] 0.01 | [5] 0.026 | [6] -0.041 | [7] -0.035 | [8] 0.02 | IRAK-1-4 Inhibitor I 0.029 | [9] 0.013 | ralimetinib 0.02 | [10] 0.024 | [11] 0.01 | [12] 0.018 | [13] 0.004 | [14] 0.02 | [15] 0.036 | [16] 0.001

CHMP7 (UniProt Q8WUX9)
inactive: erlotinib -0.003 | [1] 0.01 | [2] 0.006 | [3] -0.017 | [4] 0.01 | [5] -0.041 | [6] 0.005 | [7] -0.036 | [8] -0.054 | IRAK-1-4 Inhibitor I -0.014 | ibrutinib 0.117 | [9] -0.038 | ralimetinib 0.025 | [10] 0.013 | [11] 0.039 | [12] -0.021 | [13] -0.006 | [14] -0.035 | [15] 0.017 | [16] 0

More records.

CLNS1A (UniProt P54105)
inactive: erlotinib 0.008 | [1] 0.007 | [2] 0.049 | [3] -0.004 | [4] -0.014 | [5] 0.004 | [6] 0.001 | [7] 0.018 | [8] 0.014 | IRAK-1-4 Inhibitor I 0.036 | [9] 0.016 | ralimetinib -0.008 | [10] -0.047 | [11] -0.019 | [12] 0.014 | [13] -0.011 | [14] -0.001 | [15] 0.017 | [16] -0.028

CLIC2 (UniProt O15247)
inactive: erlotinib 0.036 | [1] 0.022 | [2] -0.005 | [3] -0.03 | [4] -0.014 | [5] -0.014 | [6] -0.014 | [7] 0.019 | [8] 0.015 | IRAK-1-4 Inhibitor I 0.006 | [9] -0.014 | ralimetinib 0.004 | [10] 0.004 | [11] 0.04 | [12] -0.01 | [13] 0.018 | [14] 0.005 | [15] 0.006 | [16] 0.001

CLEC16A (UniProt Q2KHT3)
inactive: erlotinib -0.001 | [1] 0.008 | [2] 0.017 | [3] -0.017 | [4] 0.036 | [5] 0.03 | [6] 0.01 | [7] -0.024 | [8] 0.02 | IRAK-1-4 Inhibitor I -0.017 | [9] -0.026 | ralimetinib 0.015 | [10] -0.009 | [11] -0.018 | [12] -0.022 | [13] -0.023 | [14] 0.025 | [15] -0.018 | [16] -0.012

CLIC6 (UniProt Q96NY7)
inactive: erlotinib 0.015 | [1] -0.07 | [2] 0.021 | [3] 0.02 | [4] 0.05 | [5] -0.04 | [6] -0.017 | [7] -0.125 | [8] -0.005 | IRAK-1-4 Inhibitor I -0.002 | [9] -0.081 | ralimetinib 0.04 | [10] 0.001 | [11] -0.063 | [13] -0.037 | [14] -0.002 | [15] 0.027 | [16] -0.047

CLN3 (UniProt Q13286)
inactive: erlotinib -0.035 | [2] 0.06 | [4] -0.067 | [5] -0.011 | IRAK-1-4 Inhibitor I 0.069 | [9] 0.058 | ralimetinib -0.022 | [10] -0.026 | [11] -0.104 | [12] 0.112 | [13] -0.044 | [15] -0.007 | [16] -0.01

CLN8 (UniProt Q9UBY8)
inactive: erlotinib -0.048 | [2] 0.114 | [4] 0.234 | [5] -0.015 | [7] -0.014 | [8] 0.126 | IRAK-1-4 Inhibitor I -0.01 | [9] 0.02 | ralimetinib -0.001 | [10] 0.039 | [11] -0.006 | [12] -0.064 | [13] -0.067 | [14] 0.037 | [15] 0.022 | [16] 0.079

CMTM4 (UniProt Q8IZR5)
inactive: erlotinib -0.136 | [1] -0.197 | [2] 0.153 | [3] -0.233 | [6] -0.029 | [9] -0.132 | [11] -0.162 | [14] -0.006 | [16] 0

CLIP1 isoform 2 (UniProt P30622)
inactive: erlotinib -0.067 | [2] 0.056 | [4] -0.082 | [5] -0.055 | [7] 0.023 | [8] 0.023 | IRAK-1-4 Inhibitor I 0.026 | [9] 0.05 | ralimetinib -0.002 | [10] -0.04 | [11] -0.054 | [12] 0.017 | [13] -0.025 | [14] 0.053 | [15] 0.021 | [16] -0.088

CHPF2 (UniProt Q9P2E5)
inactive: erlotinib 0.025 | [1] -0.264 | [2] 0 | [3] 0.255 | [5] 0.075 | [6] -0.08 | [7] 0.02 | [8] -0.171 | IRAK-1-4 Inhibitor I 0.009 | ralimetinib 0.023 | [10] -0.02 | [11] -0.097 | [13] -0.09 | [14] 0.001 | [15] 0.032

CLCN2 (UniProt P51788)
inactive: erlotinib 0.188 | [2] 0.008 | [4] 0.039 | [5] -0.044 | [7] 0.027 | [8] -0.048 | IRAK-1-4 Inhibitor I -0.056 | [9] -0.11 | ralimetinib -0.055 | [10] -0.179 | [11] -0.171 | [13] 0.012 | [14] 0.063 | [15] 0.051 | [16] -0.189

CLDN12 (UniProt P56749)
inactive: erlotinib -0.087 | [2] -0.01 | [4] -0.037 | [5] 0.065 | [7] 0.047 | [8] 0.025 | IRAK-1-4 Inhibitor I 0.031 | [9] 0.05 | ralimetinib 0.006 | [10] -0.122 | [11] 0.222 | [12] 0.065 | [13] -0.03 | [14] 0.072 | [15] 0.057 | [16] -0.157

CLN6 (UniProt Q9NWW5)
inactive: erlotinib 0.094 | [1] -0.046 | [2] -0.055 | [3] 0.169 | [4] -0.111 | [5] 0.225 | [6] -0.035 | [7] 0.081 | [8] -0.019 | IRAK-1-4 Inhibitor I -0.036 | ralimetinib -0.051 | [10] -0.056 | [11] 0 | [12] 0.026 | [13] 0.051 | [14] 0.119 | [15] -0.064

CLINT1 isoform 3 (UniProt Q14677)
inactive: erlotinib -0.062 | [1] -0.074 | [2] 0.004 | [3] -0.001 | [4] -0.026 | [5] -0.095 | [6] 0.02 | [7] -0.101 | [8] -0.022 | [9] -0.019 | ralimetinib -0.027 | [10] 0.011 | [11] 0.066 | [12] 0.037 | [13] 0.007 | [14] -0.053 | [15] -0.071 | [16] -0.028

CISD3 (UniProt P0C7P0)
inactive: erlotinib -0.014 | [1] 0.004 | [2] 0.086 | [3] -0.018 | [5] -0.025 | [6] -0.104 | [7] -0.018 | [8] 0.028 | IRAK-1-4 Inhibitor I -0.004 | [9] -0.006 | ralimetinib -0.048 | [10] -0.047 | [11] -0.008 | [12] 0.006 | [13] -0.027 | [14] -0.004 | [15] -0.02 | [16] -0.052
